Laboratory results from patent publication US7112562B2 (Diatos, S.A., priority 2001, dated 2006).
Several values for one entry are separate records, joined by “and”; a condition that tells them apart may be missing. Equal values may be shown once.

Test system: Caco-2 cell monolayers
Experiment: TEER measurement, integrity of the Caco-2 barrier model with DPV7 or DPV10
Format: cell-based
Details: Caco-2 monolayer, 30 μg/ml DPV with mannitol/proline, inserts 1-3

SSRRARRSPRHLGSG (listed as Homo sapiens) [DPV10]
TEER after incubation (after 8 hours in HBSS): 153 Ω · cm^2 and 201 Ω · cm^2 | TEER before incubation (before 8 hours in HBSS): 500 Ω · cm^2 and 458 Ω · cm^2 and 501 Ω · cm^2
